The results in this text go back to article PMC11320567, “Evaluation of the Leishmania Inositol Phosphorylceramide Synthase as a Drug Target Using a Chemical and Genetic Approach” (ACS Infectious Diseases, 2024).

The chains behind the UniProt entries cited, without tags or fusion partners. Where a name states a change or a piece, a line headed by the entry shows the natural chain unless it says otherwise.
UniProt E9AFX2: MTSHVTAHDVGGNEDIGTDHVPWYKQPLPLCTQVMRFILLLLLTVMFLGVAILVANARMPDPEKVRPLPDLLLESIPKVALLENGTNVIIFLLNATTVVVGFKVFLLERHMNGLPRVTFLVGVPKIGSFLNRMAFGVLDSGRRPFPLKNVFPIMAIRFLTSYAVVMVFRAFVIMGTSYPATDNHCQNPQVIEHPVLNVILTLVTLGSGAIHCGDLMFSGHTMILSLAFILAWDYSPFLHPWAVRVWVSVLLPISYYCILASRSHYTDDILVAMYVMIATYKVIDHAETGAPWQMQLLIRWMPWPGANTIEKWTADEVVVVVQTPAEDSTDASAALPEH

Counter-ions that a name gives are not always drawn.

Test [1] addresses T1, Leishmania mexicana inositol phosphorylceramide synthase (LmxIPCS) (Leishmania mexicana, UniProt E9B725).
T1 construct: gene LMXM_34_4990

For test [2], the target named is T2, Leishmania major inositol phosphorylceramide synthase (LmjIPCS) (Leishmania major, UniProt E9AFX2).
T2 construct: gene IPCS

On to `CN1CCC[C@@H]1CCO[C@](C)(c1ccccc1)c1ccc(Cl)cc1` [clemastine fumarate], for which the “dose-response of IPCS activity in purified proteoliposomes, C6-NBD-ceramide turn” value in test [1] is recorded as “Dose–response assays revealed that LmxIPCS was more sensitive to clemastine fumarate than LmjIPCS (Figure 1C)”; in test [2], “with efficacy in the high micromolar range for both orthologues”.
